Earlier results in article PMC8536600 (Cancer Chemotherapy and Pharmacology, 2021).

Tested on: CYP3A4
Conditions: cited from earlier work

## COC(=O)C1=C(C)NC(C)=C(C(=O)OC)C1c1ccccc1[N+](=O)[O-] [Nifedipine]
  CYP3A4 (inhibitor / inducer): inducer / inhibitor
